# Assay results published in patent publication US20140142343A1, “Novel Fragrance Compounds” (Givaudan Nederland Services B.V., priority 2006, published 2014).
# Columns and labels:
# [1] = Performance in candle wax: odour intensity in cold wax and burn mode; settings: candle wax dosed at 1.0%, ingredients as 10% dilutions in benzyl benzoate; for COLD WAX MODE: before burning; for BURN MODE: burned for one hour
# [2] = Odour description of the prepared compound; settings: odour description of the isolated product
# [3] = Performance on hair: muguet odour intensity from Pantene shampoo on hair switches; settings: scale 0 to 10, Lily aldehyde=5, Pantene shampoo dosed at 0.2%, Compound 1 and Florhydral as 10% DPG; for FOAMING INTENSITY MEAN: after 30 s massage into hair; for DRY INTENSITY MEAN: hair line dried 3 hours; for DAMP INTENSITY MEAN: rinsed, towel dried hair
# [4] = Addition of the compound to perfuming compositions
# [5] = Malodour counteracting, small-scale tabletop method with trained sensory panel; settings: 1% w/w in DPG; bathroom malodour at 0.5%
Structure (SMILES),COLD WAX MODE [1],BURN MODE [1],Odour [2],further results
CC(C)(O)CCCC1=CCC(C=O)CC1 (stereo not shown) [LYRAL],Faint odour character in cold mode.,Very weak in burn.,,
"CC(C)C1CCCC(C(C)C(C)C=O)C1 (stereo not shown) [Example 5, 3-(3-isopropylcyclohexyl)-2-methylbutanal]",,,"green, violet, apple, cucumber",
"CC(C)(C)C1CCCC(CCC=O)C1 (single isomer, unassigned; isomer 3) [Pure TRANS-Isomer, 3-(3-tert-butylcyclohexyl)propanal]",,,"aldehydic, floral, metallic",
"CC1CCCC(CC(C)(C)C=O)C1 (stereo not shown) [Example 8, 2,2-dimethyl-3-(3-methylcyclohexyl)propanal]",,,"marine, watery",
"CC(C)(C)C1CCCC(CCC=O)C1 (single isomer, unassigned; isomer 3) [Pure CIS-Isomer, 3-(3-tert-butylcyclohexyl)propanal]",,,"aldehydic, floral, muguet, watery",
CC(C=O)Cc1ccc(C(C)(C)C)cc1 (stereo not shown) [LILY ALDEHYDE],"Faint odour character,",Not strong. Does not compare,,FOAMING INTENSITY MEAN [3]: 5; DRY INTENSITY MEAN [3]: 5; DAMP INTENSITY MEAN [3]: 5
"CC(C)c1cccc(C(C)CC=O)c1 (stereo not shown) [FLORHYDRAL, 3-(3-isopropylphenyl)butanal]",Not as strong as Compound 1. Still a,Not as strong as Compound 1.,,FOAMING INTENSITY MEAN [3]: 5; DRY INTENSITY MEAN [3]: 4; DAMP INTENSITY MEAN [3]: 6
"CC(C)C1CCCC(C(C)CC=O)C1 (stereo not shown) [Compound 2, 3-(3-isopropylcyclohexyl)butanal]",,,"green, violet, orris, aldehydic",
"CC(C)(C)C1CCCC(CCC=O)C1 (stereo not shown) [Compound 1, 3-(3-tert-butylcyclohexyl)propanal]","Very strong in cold wax, excellent","VERY strong, excellent performer","aldehydic, floral, muguet, green",FOAMING INTENSITY MEAN [3]: 9; DRY INTENSITY MEAN [3]: 8; DAMP INTENSITY MEAN [3]: 8; effect on perfuming composition for water based gel air freshener ([4]; 0.25% of compound instead of equivalent amount of Dihydro Myrcenol): enhanced the perceived odour intensity of the fragrance; effect on perfuming composition for general purpose cleaner ([4]; 0.50% of compound instead of equivalent amount of Linalol): enhanced the perceived odour intensity of the fragrance
"CC(C=O)CC1CCCC(C)C1 (stereo not shown) [Compound 3, 2-methyl-3-(3-methylcyclohexyl)propanal]",,,"floral, citrus, cuminic, nitrile",perceived intensity of malodour [5]: significantly reduced the perceived intensity of malodour
"CC(CC=O)C1CCCC(C(C)(C)C)C1 (stereo not shown) [Example 6, 3-(3-tert-butylcyclohexyl)butanal]",,,"aldehydic, floral, herbal, watery",
"CC1CCCC(CCC=O)C1 (stereo not shown) [Compound 4, 3-(3-methylcyclohexyl)propanal]",,,"aldehydic, fatty, nitrile",perceived intensity of malodour [5]: significantly reduced the perceived intensity of malodour
"CC1CCCC(C(C)CC=O)C1 (stereo not shown) [Example 3, 3-(3-methylcyclohexyl)butanal]",,,"aldehydic, green, muguet",
